Patent publication US10344001B2, “Azolylacryloyl derivatives as therapeutic agents for sickle cell disease” (VIRGINIA COMMONWEALTH UNIVERSITY, priority 2015, dated 2019)
Some of these results come from one statement about several compounds together.

Experiment: Reactivity toward free L-cysteine (UPLC-MS of compound and adduct)
Conditions: incubated with L-Cys for 3 hours, values in text
Excerpt: The above synthesized KAUS compounds were expected to covalently bind to Hb through a Michael addition reaction with the βCys93 at the surface of the protein to effect their allosteric and antisickling activities. We therefore investigated L-Cys conjugates with KAUS-28, KAUS-29, KAUS-33, KAUS-38 and KAUS-39 with ECA as a positive control using UPLC-MS analysis as previously described^20 with an Acquity H-Class UPLC which is connected to a PDA detector and an Acquity TQD detector. The column used was an Acquity UPLC BEH C18 1.7 μm, 2.1×50 mm, with a Vanguard pre-column attached. Solvent A consisted of water with 0.02% formic acid, while solvent B consisted of 90:10 acetonitrile:water with 0.02% formic acid. A gradient run was performed such that solvent B was increased from 0% B to 100% B from time 0-5 mins, followed by 3 minute wash at 100% B and then a return and re-equilibration at 100% A in the next 4 mins. The flow rate was maintained at 0.5 ml/min throughout the run. 2 μL of sample was injected per run. […] The eluent was then introduced into the TQD detector. […]

Row | Structure (SMILES) | Reactivity with L-Cys (adduct share) [%]
1 | COc1cccc(C(=O)/C=C/c2ncc[nH]2)c1 [KAUS-29, (E)-3-(1H-imidazol-2-yl)-1-(3-methoxyphenyl)prop-2-en-1-one] | < 10
2 | O=C(/C=C/c1ncc[nH]1)c1ccccc1 [KAUS-28, (E)-3-(1H-imidazol-2-yl)-1-phenylprop-2-en-1-one] | < 10
